From US20100196395A1
No constants are given. Whether binding was seen depends on the method and setting. Some binding calls cover weakened binding; strength is not graded here.

Protein sequences, listed by entry. Tags and fused reporters are not part of them. Residues count along the entry.
UniProt P05019, residues 49-118: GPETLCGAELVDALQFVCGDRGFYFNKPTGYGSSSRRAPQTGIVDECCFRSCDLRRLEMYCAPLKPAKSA

B1: antibody 40183 (antibody, human IgG1, lambda, V domains shown)
VH: QVELVESGGGLVQPGGSLRLSCAASGFTWSSFAMSWVRQAPGKGLEWVSYISYLGSYTGYADSVKGRFTISRDNSKNTLYLQMNSLRAEDTAVYYCARGTKFDYWGQGTLVTVSS
VL: DIVLTQPPSVSGAPGQRVTISCTGSSSNIGTYDVHWYQQLPGTAPKLLIYSNSKRPSGVPDRFSGSKSGTSASLAITGLQSEDEADYYCSITRVFGGGTKLTVLG
B2: antibody 40186 (antibody, human IgG1, lambda, V domains shown)
VH: QVELVESGGGLVQPGGSLRLSCAASGFTFSNYWMHWVRQAPGKGLEWVSGISGWSSWTYYADSVKGRFTISRDNSKNTLYLQMNSLRAEDTAVYYCARFGIDAYTKVYFDYWGQGTLVTVSS
VL: DIELTQPPSVSVAPGQTARISCSGDNIPLKYVSWYQQKPGQAPVLVIHDDNKRPSGIPERFSGSNSGNTATLTISGTQAEDEADYYCQSWASTGVVFGGGTKLTVLG

Target: biotinylated IGF-1 (UniProt P05019)
Assay: competition ELISA: antibody blocks binding of biotinylated IGF-1 to coated IGF-1R, fluorescence readout

Row | Binder | binding
1 | B1 | binds
2 | B2 | binds
